Reference: the supplement of paper PMC10849652
The list shows a part of the results.

Sequences of proteins named here, by UniProt entry; tags and fusion partners are left off. A change or cut given only in a name is not applied to a line headed by its entry.
UniProt P11117: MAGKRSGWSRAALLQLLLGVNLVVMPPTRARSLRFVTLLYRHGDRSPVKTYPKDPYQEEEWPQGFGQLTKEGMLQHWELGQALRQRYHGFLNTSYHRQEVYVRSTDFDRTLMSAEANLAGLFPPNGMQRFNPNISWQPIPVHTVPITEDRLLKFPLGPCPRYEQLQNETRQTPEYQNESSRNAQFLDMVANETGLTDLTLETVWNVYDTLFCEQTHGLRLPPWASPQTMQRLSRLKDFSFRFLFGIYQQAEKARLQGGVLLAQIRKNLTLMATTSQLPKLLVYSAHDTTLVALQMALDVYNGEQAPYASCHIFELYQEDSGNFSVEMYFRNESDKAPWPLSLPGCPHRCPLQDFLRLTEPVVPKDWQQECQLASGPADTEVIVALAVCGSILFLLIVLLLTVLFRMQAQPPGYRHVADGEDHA
UniProt O43572: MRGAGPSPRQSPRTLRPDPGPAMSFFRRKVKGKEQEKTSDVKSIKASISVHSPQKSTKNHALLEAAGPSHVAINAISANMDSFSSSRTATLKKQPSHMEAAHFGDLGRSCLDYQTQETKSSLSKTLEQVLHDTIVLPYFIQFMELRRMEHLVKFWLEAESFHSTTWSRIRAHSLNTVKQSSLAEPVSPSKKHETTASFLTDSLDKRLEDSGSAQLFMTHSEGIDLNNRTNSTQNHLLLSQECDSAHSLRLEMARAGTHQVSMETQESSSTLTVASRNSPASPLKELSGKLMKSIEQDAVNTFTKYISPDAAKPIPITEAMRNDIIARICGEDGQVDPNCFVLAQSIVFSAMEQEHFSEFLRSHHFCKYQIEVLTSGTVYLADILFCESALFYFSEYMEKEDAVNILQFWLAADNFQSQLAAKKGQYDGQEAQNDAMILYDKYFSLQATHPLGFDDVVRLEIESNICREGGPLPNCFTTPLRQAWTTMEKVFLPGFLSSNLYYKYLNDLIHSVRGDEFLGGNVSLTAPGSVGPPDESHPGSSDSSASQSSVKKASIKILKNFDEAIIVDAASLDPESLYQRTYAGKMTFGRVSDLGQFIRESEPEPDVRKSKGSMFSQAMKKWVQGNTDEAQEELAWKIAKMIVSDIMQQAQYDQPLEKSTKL
UniProt Q13155: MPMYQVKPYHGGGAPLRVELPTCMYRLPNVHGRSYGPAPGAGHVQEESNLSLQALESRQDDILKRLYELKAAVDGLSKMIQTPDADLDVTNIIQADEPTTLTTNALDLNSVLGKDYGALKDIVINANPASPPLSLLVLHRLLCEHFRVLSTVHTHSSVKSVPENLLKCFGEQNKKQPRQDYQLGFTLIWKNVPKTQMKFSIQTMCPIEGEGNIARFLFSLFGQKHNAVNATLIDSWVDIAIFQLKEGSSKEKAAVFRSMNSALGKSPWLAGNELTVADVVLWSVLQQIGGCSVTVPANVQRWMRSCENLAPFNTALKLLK
UniProt O95081: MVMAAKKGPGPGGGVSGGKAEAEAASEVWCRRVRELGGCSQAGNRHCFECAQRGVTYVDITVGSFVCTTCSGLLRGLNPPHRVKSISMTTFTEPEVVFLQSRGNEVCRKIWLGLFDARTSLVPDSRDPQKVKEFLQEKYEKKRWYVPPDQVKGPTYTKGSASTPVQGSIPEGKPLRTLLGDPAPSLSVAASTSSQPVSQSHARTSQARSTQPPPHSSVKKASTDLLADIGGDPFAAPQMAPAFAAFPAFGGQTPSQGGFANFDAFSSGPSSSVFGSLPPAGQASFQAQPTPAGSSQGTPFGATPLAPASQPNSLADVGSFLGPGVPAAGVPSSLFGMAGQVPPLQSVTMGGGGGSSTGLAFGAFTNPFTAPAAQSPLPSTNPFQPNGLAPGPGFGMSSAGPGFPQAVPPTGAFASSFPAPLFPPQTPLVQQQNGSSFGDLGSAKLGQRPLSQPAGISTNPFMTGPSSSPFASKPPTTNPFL
UniProt Q6ZN18: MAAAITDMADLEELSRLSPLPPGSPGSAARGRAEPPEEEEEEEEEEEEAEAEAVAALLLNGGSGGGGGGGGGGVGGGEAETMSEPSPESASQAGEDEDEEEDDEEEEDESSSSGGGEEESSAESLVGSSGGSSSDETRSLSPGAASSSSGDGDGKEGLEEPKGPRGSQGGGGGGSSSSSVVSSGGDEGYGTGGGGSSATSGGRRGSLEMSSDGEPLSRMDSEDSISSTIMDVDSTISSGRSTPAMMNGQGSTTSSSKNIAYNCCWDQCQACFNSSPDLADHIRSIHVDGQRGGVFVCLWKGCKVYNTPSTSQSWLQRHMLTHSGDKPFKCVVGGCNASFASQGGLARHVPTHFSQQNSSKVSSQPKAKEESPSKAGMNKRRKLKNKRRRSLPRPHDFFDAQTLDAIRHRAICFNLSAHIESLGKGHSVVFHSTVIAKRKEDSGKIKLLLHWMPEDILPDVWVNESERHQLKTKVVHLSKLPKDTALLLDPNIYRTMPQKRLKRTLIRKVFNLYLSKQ
UniProt Q9Y6K8: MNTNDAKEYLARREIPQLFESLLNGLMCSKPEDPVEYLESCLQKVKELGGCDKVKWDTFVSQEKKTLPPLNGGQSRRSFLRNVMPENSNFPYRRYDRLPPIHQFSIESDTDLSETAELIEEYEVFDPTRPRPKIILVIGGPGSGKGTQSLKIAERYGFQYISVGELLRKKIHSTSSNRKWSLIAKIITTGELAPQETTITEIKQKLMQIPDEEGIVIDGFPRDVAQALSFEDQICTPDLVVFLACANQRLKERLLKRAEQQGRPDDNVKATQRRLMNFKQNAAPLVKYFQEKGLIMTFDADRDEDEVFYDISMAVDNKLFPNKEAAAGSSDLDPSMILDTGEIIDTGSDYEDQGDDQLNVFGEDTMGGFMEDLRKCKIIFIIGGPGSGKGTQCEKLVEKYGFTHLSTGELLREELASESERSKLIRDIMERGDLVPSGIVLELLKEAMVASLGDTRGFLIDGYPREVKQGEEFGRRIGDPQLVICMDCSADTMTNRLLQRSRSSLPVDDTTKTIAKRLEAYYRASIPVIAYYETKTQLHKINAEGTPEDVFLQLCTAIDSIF
UniProt P24666: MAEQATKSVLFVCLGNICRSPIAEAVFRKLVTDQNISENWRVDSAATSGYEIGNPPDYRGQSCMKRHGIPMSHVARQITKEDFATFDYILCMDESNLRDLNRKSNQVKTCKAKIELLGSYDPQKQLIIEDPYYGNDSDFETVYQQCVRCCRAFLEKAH
UniProt P35611: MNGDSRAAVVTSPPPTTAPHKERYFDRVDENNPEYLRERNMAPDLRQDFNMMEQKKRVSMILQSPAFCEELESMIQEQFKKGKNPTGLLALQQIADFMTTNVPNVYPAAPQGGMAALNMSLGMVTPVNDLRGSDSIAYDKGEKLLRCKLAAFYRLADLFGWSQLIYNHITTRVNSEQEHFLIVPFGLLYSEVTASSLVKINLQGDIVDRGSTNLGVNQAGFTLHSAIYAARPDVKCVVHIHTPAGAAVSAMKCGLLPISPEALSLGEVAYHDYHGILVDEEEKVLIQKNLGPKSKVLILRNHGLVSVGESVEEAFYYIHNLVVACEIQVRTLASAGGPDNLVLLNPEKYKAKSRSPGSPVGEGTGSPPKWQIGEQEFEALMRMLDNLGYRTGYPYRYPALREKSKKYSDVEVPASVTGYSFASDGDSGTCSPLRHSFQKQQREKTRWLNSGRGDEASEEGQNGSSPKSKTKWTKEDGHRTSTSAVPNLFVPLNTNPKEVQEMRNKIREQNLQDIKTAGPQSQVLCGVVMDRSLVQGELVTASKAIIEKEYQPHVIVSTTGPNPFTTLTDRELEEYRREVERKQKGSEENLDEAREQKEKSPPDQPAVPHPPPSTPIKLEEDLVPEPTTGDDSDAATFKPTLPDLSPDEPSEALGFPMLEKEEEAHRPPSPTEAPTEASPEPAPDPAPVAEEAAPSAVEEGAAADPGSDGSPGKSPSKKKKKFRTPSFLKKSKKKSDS
UniProt Q9NZD4: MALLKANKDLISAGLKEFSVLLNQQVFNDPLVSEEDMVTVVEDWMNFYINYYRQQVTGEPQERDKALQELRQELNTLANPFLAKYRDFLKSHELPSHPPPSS
UniProt Q9NUQ2: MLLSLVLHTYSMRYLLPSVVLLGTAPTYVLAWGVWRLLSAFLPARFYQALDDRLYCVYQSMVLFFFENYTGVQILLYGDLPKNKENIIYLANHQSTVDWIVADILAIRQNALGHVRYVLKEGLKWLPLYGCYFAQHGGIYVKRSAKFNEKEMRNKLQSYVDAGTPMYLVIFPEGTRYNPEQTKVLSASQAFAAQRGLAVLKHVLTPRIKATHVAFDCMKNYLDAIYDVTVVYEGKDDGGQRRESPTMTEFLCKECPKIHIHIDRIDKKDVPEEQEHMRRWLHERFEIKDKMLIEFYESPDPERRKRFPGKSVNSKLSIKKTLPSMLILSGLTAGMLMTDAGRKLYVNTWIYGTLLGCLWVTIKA
UniProt P14621: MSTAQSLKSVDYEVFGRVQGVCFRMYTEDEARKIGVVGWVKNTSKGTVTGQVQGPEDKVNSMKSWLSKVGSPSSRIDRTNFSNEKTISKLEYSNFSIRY
UniProt Q8NHP1: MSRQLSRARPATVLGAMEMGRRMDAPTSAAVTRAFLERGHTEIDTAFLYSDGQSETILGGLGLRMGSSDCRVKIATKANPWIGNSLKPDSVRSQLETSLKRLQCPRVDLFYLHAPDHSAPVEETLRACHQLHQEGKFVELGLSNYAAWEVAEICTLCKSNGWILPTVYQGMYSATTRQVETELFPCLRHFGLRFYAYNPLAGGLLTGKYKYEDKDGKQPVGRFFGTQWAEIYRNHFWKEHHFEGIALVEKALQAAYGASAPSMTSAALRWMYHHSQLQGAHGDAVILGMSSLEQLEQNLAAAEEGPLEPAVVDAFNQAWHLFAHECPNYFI
UniProt Q8TED9: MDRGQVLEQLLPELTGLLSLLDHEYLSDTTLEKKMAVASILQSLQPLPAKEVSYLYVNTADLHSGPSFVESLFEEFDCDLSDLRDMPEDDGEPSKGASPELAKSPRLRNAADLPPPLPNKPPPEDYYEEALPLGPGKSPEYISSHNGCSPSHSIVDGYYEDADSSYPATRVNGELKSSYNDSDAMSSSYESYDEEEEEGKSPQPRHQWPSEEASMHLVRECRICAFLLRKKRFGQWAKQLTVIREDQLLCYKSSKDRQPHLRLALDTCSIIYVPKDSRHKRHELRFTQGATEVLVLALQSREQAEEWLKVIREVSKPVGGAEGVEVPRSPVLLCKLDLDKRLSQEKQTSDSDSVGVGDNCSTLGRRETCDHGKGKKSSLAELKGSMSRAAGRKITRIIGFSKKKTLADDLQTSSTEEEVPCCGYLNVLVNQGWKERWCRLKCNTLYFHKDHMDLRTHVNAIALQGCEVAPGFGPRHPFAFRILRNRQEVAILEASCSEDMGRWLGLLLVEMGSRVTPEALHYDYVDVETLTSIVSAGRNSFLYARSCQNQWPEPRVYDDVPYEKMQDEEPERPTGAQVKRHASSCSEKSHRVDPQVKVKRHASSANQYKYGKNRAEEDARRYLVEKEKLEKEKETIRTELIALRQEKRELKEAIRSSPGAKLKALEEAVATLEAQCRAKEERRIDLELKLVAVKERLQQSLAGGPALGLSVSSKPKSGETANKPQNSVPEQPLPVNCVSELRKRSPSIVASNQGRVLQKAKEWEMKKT
UniProt Q13444: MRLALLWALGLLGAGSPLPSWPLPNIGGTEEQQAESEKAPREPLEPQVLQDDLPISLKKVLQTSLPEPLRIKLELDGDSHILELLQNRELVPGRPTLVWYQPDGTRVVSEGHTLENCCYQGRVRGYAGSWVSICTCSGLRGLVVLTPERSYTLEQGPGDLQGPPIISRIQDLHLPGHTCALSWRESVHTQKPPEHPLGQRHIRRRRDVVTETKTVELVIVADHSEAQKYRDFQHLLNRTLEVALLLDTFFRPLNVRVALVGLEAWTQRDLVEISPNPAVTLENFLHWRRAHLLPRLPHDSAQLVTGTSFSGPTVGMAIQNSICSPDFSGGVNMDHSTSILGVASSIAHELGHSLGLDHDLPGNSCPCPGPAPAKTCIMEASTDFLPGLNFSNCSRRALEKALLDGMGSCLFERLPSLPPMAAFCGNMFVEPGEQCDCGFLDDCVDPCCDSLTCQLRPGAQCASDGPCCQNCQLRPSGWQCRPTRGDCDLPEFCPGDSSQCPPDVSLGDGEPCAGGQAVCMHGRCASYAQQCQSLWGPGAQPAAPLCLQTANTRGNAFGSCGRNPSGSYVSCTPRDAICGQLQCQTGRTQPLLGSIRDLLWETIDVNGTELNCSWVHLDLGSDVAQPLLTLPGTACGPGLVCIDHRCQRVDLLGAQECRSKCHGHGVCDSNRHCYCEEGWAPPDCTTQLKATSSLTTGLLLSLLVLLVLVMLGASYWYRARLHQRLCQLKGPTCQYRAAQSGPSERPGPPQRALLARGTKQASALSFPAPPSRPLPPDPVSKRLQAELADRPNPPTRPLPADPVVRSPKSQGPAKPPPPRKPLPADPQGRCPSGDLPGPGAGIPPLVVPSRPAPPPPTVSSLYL

Tests used:
Experiment in all cases: log2 fold change, soluble protein after heating vs DMSO (PISA); higher = thermal stabilisation; K562 lysate, 10 uM; active = over 0.2 and 3.5 SD of the protein, either way, in both replicates (recomputed)
lapatinib = compound: CS(=O)(=O)CCNCc1ccc(-c2ccc3ncnc(Nc4ccc(OCc5cccc(F)c5)c(Cl)c4)c3c2)o1 [lapatinib]
In short: (§1)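 K562 pellets were dounce-homogenised in PBS pH 7.4 containing 1 mM MgCl2, and the crude extract, at 1 mg/mL protein, was exposed to 10 μM compound for 30 min. Aliquots were heated for 3 min across 48°C-58°C, pooled, brought to 0.5% NP-40 at 4°C and spun at 21,000xg for 90 min, with the supernatant taken as soluble protein. TMTpro 16plex LC-MS/MS with equalised channel sums quantified that protein. Values are log-two fold changes in thermal stability relative to solvent controls, taken from duplicates.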

pictilisib = compound: CS(=O)(=O)N1CCN(Cc2cc3nc(-c4cccc5[nH]ncc45)nc(N4CCOCC4)c3s2)CC1 [pictilisib]
In short: as §1

crizotinib = compound: C[C@@H](Oc1cc(-c2cnn(C3CCNCC3)c2)cnc1N)c1c(Cl)ccc(F)c1Cl [crizotinib]
In short: as §1

[1] = compound: C[C@H](C1=CC=C(C=C1)C(=O)NC2=C3C=CNC3=NC=C2)N
In short: as §1

duvelisib = compound: C[C@H](Nc1ncnc2nc[nH]c12)c1cc2cccc(Cl)c2c(=O)n1-c1ccccc1 [duvelisib]
In short: as §1

gandotinib = compound: Cc1cc(Nc2cc(CN3CCOCC3)c3nc(C)c(Cc4ccc(Cl)cc4F)n3n2)n[nH]1 [gandotinib]
In short: as §1

tozasertib = compound: Cc1cc(Nc2cc(N3CCN(C)CC3)nc(Sc3ccc(NC(=O)C4CC4)cc3)n2)n[nH]1 [tozasertib]
In short: as §1

doramapimod = compound: Cc1ccc(-n2nc(C(C)(C)C)cc2NC(=O)Nc2ccc(OCCN3CCOCC3)c3ccccc23)cc1 [doramapimod]
In short: as §1

bafetinib = compound: Cc1ccc(NC(=O)c2ccc(CN3CC[C@H](N(C)C)C3)c(C(F)(F)F)c2)cc1Nc1nccc(-c2cncnc2)n1 [bafetinib]
In short: as §1

[2] = compound: Cc1cccc(CC(=O)N2CCc3c2ccc(-c2cn(C)c4ncnc(N)c24)c3F)n1
In short: as §1

nilotinib = compound: Cc1cn(-c2cc(NC(=O)c3ccc(C)c(Nc4nccc(-c5cccnc5)n4)c3)cc(C(F)(F)F)c2)cn1 [nilotinib]
In short: as §1

[3] = compound: Cc1nc(Nc2n[nH]c3c2CN(C(=O)N[C@H](CN(C)C)c2ccccc2)C3(C)C)c2sccc2n1
In short: as §1

dasatinib = compound: Cc1nc(Nc2ncc(C(=O)Nc3c(C)cccc3Cl)s2)cc(N2CCN(CCO)CC2)n1 [dasatinib]
In short: as §1

[4] = compound: Cc1ncc(-c2ccnc(Nc3ccc(S(C)(=O)=O)cc3)n2)n1C(C)C
In short: as §1

[5] = compound: Cn1cc(-c2ccc3c(c2)CCN3C(=O)Cc2cccc(C(F)(F)F)c2)c2c(N)ncnc21
In short: as §1

quisinostat = compound: Cn1cc(CNCC2CCN(c3ncc(C(=O)NO)cn3)CC2)c2ccccc21 [quisinostat]
In short: as §1

tipifarnib = compound: Cn1cncc1[C@@](N)(c1ccc(Cl)cc1)c1ccc2c(c1)c(-c1cccc(Cl)c1)cc(=O)n2C [tipifarnib]
In short: as §1

[6] = compound: NC(=O)Nc1cc(-c2cccc(F)c2)sc1C(=O)N[C@H]1CCCNC1
In short: as §1

[7] = compound: NC(=O)c1cnc(N[C@@H]2CCCC[C@@H]2N)nc1Nc1cccc(-n2nccn2)c1
In short: as §1

[8] = compound: NC1(c2ccc(-c3nc4ccn5c(=O)[nH]nc5c4cc3-c3ccccc3)cc2)CCC1
In short: as §1

Target	log2 fold change (lapatinib)	log2 fold change (pictilisib)	log2 fold change (crizotinib)	log2 fold change [1]	log2 fold change (duvelisib)	log2 fold change (gandotinib)	log2 fold change (tozasertib)	log2 fold change (doramapimod)	log2 fold change (bafetinib)	log2 fold change [2]	log2 fold change (nilotinib)	log2 fold change [3]	log2 fold change (dasatinib)	log2 fold change [4]	log2 fold change [5]	log2 fold change (quisinostat)	log2 fold change (tipifarnib)	log2 fold change [6]	log2 fold change [7]	log2 fold change [8]
ADA (UniProt P00813)	inactive: -0.014	inactive: 0.003	inactive: -0.051	inactive: -0.107	inactive: -0.004	inactive: 0.107	inactive: -0.035	inactive: 0.027	inactive: 0.016	inactive: 0.08	inactive: 0.007	inactive: -0.045	inactive: 0.151	inactive: 0.113	inactive: 0.03	inactive: -0.101	inactive: -0.037	inactive: -0.012	inactive: 0	inactive: 0.005
ADPGK (UniProt Q9BRR6)	inactive: 0.09	inactive: -0.062	inactive: 0.099	inactive: 0.034	inactive: -0.02	inactive: -0.017	inactive: -0.017	inactive: -0.009	inactive: -0.007	inactive: 0.041	inactive: -0.02	inactive: -0.045	inactive: 0.026	inactive: -0.051	inactive: 0.07	inactive: 0.118	inactive: -0.057	inactive: -0.009	inactive: -0.007	inactive: 0.04
AK2 (UniProt P54819)	inactive: 0.058	inactive: -0.005	inactive: -0.007	inactive: 0.076	inactive: -0.031	inactive: 0	inactive: 0	inactive: 0.061	inactive: 0.005	inactive: -0.046	inactive: 0.003	inactive: -0.006	inactive: 0.079	inactive: -0.013	inactive: -0.022	inactive: 0.024	inactive: 0.007	inactive: -0.066	inactive: 0.013	inactive: 0.004
ADSS1 (UniProt Q8N142)	inactive: -0.069	inactive: -0.051	inactive: 0.013	inactive: -0.055	inactive: -0.022	inactive: 0.09	inactive: 0.004	inactive: 0.006	inactive: -0.024	inactive: 0.031	inactive: -0.061	inactive: -0.043	inactive: 0.029	inactive: 0.032	inactive: -0.019	inactive: -0.006	inactive: 0.049	inactive: -0.002	inactive: 0.029	inactive: 0.009
ACP2 (UniProt P11117)	inactive: -0.016	inactive: -0.043	inactive: 0.025	inactive: -0.076	inactive: -0.041	inactive: 0.018	inactive: 0.006	inactive: 0.019	inactive: -0.009	inactive: 0.078	inactive: 0.036	inactive: -0.034	inactive: 0.127	inactive: 0	inactive: -0.032	inactive: -0.053	inactive: -0.007	inactive: 0.043	inactive: 0	inactive: -0.057
AGO3 (UniProt Q9H9G7)	inactive: -0.015	inactive: -0.157	inactive: 0.031	inactive: -0.075	inactive: -0.018	inactive: 0.017	inactive: 0.028	inactive: -0.009	inactive: -0.066	inactive: -0.018	inactive: -0.158	inactive: 0.013	inactive: 0	inactive: 0.054	inactive: 0.021	inactive: 0	inactive: -0.039	inactive: 0.042	inactive: -0.005	inactive: -0.01
AKAP10 (UniProt O43572)	inactive: 0.059	inactive: 0.039	inactive: 0.006	–	inactive: 0.103	–	inactive: -0.146	inactive: 0.103	inactive: -0.042	–	inactive: 0.141	inactive: 0.121	inactive: -0.071	inactive: -0.043	inactive: -0.116	inactive: -0.038	inactive: -0.143	inactive: -0.081	inactive: -0.001	inactive: 0.077
AIMP2 isoform 2 (UniProt Q13155)	inactive: -0.058	inactive: -0.148	inactive: -0.036	–	–	–	–	inactive: -0.019	inactive: -0.082	–	–	–	–	–	–	inactive: -0.106	–	inactive: 0.067	inactive: 0.017	–
AGFG2 (UniProt O95081)	inactive: 0.002	–	inactive: 0.111	–	inactive: 0.041	–	inactive: -0.02	inactive: -0.107	–	–	–	–	inactive: 0.018	–	inactive: 0.036	inactive: 0.04	–	inactive: 0.084	inactive: 0.009	inactive: -0.137
AEBP2 (UniProt Q6ZN18)	inactive: 0.031	inactive: 0.005	inactive: -0.059	–	inactive: -0.026	–	–	inactive: 0.009	inactive: 0.036	–	–	–	inactive: 0.126	–	inactive: -0.096	inactive: -0.164	–	inactive: 0.037	inactive: -0.07	inactive: -0.018
AFG1L (UniProt Q8WV93)	inactive: 0.056	–	inactive: -0.085	–	inactive: -0.027	–	inactive: -0.158	inactive: -0.152	–	–	inactive: -0.004	inactive: 0.03	inactive: 0.008	inactive: 0	inactive: 0	inactive: -0.044	inactive: -0.034	inactive: -0.061	inactive: 0.035	inactive: 0.035
AK5 (UniProt Q9Y6K8)	inactive: -0.032	inactive: 0.021	inactive: 0.046	–	inactive: 0.022	–	inactive: -0.008	inactive: -0.039	inactive: -0.002	–	inactive: 0.012	inactive: 0.003	inactive: -0.007	inactive: -0.056	inactive: -0.009	inactive: 0.072	inactive: 0.042	inactive: -0.015	inactive: 0.047	inactive: -0.044
ACP1 isoform 2 (UniProt P24666)	inactive: -0.043	inactive: -0.001	inactive: -0.047	inactive: 0.04	inactive: -0.017	inactive: -0.014	inactive: 0	inactive: 0.002	inactive: -0.041	inactive: 0.029	inactive: 0.003	inactive: -0.036	inactive: -0.078	inactive: -0.009	inactive: 0.033	inactive: -0.003	inactive: 0.005	inactive: 0.004	inactive: 0.016	inactive: 0.023
ADD1 isoform 4 (UniProt P35611)	inactive: -0.006	inactive: -0.168	–	active: -0.745	inactive: 0.029	inactive: 0.556	inactive: -0.044	–	inactive: 0.097	inactive: 0.563	–	–	inactive: -0.017	–	inactive: -0.075	–	–	–	inactive: -0.109	inactive: -0.274
AHSP (UniProt Q9NZD4)	inactive: 0.054	inactive: 0.025	–	inactive: 0.321	–	inactive: -0.086	inactive: 0.033	–	inactive: -0.152	inactive: -0.105	inactive: 0.207	inactive: -0.005	–	inactive: 0.226	–	–	inactive: -0.065	–	inactive: -0.008	–
AGPAT5 (UniProt Q9NUQ2)	inactive: 0.013	inactive: -0.018	inactive: -0.076	inactive: 0.071	inactive: 0.033	inactive: -0.105	inactive: -0.004	inactive: -0.071	inactive: -0.086	inactive: 0.036	inactive: -0.016	inactive: -0.028	inactive: -0.035	inactive: -0.008	inactive: -0.035	inactive: 0.114	inactive: 0.024	inactive: 0.002	inactive: 0.01	inactive: -0.018
AIFM1 (UniProt O95831)	inactive: 0.025	inactive: -0.016	inactive: 0.042	inactive: 0.091	inactive: -0.005	inactive: -0.008	inactive: -0.014	inactive: 0.005	inactive: 0.021	inactive: -0.033	inactive: 0.005	inactive: -0.016	inactive: 0.034	inactive: 0.003	inactive: -0.005	inactive: 0.045	inactive: 0.043	inactive: -0.014	inactive: 0.021	inactive: 0.006
AGA (UniProt P20933)	inactive: 0.014	–	inactive: -0.19	–	–	–	inactive: 0.125	inactive: 0.067	–	–	–	–	–	–	–	inactive: 0.084	–	inactive: -0.029	inactive: 0.048	inactive: 0.01
ACYP2 (UniProt P14621)	inactive: -0.049	inactive: -0.065	inactive: 0.082	inactive: 0.217	–	inactive: -0.076	–	inactive: -0.024	inactive: -0.002	inactive: -0.105	inactive: -0.008	inactive: -0.079	–	inactive: 0.097	–	inactive: -0.047	inactive: 0.009	inactive: -0.009	inactive: -0.026	inactive: 0.019
ACTB (UniProt C9JUM1)	inactive: 0.091	inactive: -0.268	–	–	–	–	–	–	inactive: 0.197	–	inactive: 0.331	inactive: -0.094	–	inactive: 0.01	–	–	inactive: 0.173	–	inactive: -0.102	–
ACTB (UniProt C9JTX5)	inactive: -0.103	inactive: -0.396	inactive: 0.014	inactive: -0.198	inactive: 0.094	inactive: -0.381	–	inactive: 0.098	inactive: -0.048	inactive: 0.061	inactive: -0.031	inactive: 0.111	inactive: -0.034	inactive: 0.163	inactive: -0.041	inactive: -0.047	inactive: 0.03	inactive: -0.098	inactive: -0.086	–
AKR7L (UniProt Q8NHP1)	inactive: 0.052	–	inactive: -0.033	–	inactive: -0.101	–	–	inactive: -0.156	–	–	inactive: -0.128	inactive: 0.273	inactive: -0.111	inactive: -0.055	inactive: -0.125	inactive: 0.154	inactive: -0.132	inactive: 0.055	inactive: 0.006	–
AFAP1L1 (UniProt Q8TED9)	inactive: -0.104	inactive: -0.218	inactive: 0.08	–	inactive: 0.073	–	inactive: -0.036	inactive: -0.035	inactive: -0.017	–	–	–	inactive: 0.029	–	inactive: -0.112	inactive: 0.226	–	inactive: 0.007	inactive: 0.123	inactive: -0.079
ADAM15 (UniProt Q13444)	inactive: -0.018	inactive: 0.041	inactive: -0.039	inactive: 0.008	inactive: 0.121	inactive: 0.041	–	inactive: 0.03	inactive: 0.108	inactive: 0.139	–	–	inactive: -0.415	–	inactive: 0.032	inactive: 0.01	–	inactive: -0.061	inactive: 0.111	inactive: 0.044

Complete entries from above. Order of values: log2 fold change (lapatinib)	log2 fold change (pictilisib)	log2 fold change (crizotinib)	log2 fold change [1]	log2 fold change (duvelisib)	log2 fold change (gandotinib)	log2 fold change (tozasertib)	log2 fold change (doramapimod)	log2 fold change (bafetinib)	log2 fold change [2]	log2 fold change (nilotinib)	log2 fold change [3]	log2 fold change (dasatinib)	log2 fold change [4]	log2 fold change [5]	log2 fold change (quisinostat)	log2 fold change (tipifarnib)	log2 fold change [6]	log2 fold change [7]	log2 fold change [8]
AFAP1L1 (UniProt Q8TED9) reads inactive: -0.104	inactive: -0.218	inactive: 0.08	–	inactive: 0.073	–	inactive: -0.036	inactive: -0.035	inactive: -0.017	–	–	–	inactive: 0.029	–	inactive: -0.112	inactive: 0.226	–	inactive: 0.007	inactive: 0.123	inactive: -0.079
AEBP2 (UniProt Q6ZN18) reads inactive: 0.031	inactive: 0.005	inactive: -0.059	–	inactive: -0.026	–	–	inactive: 0.009	inactive: 0.036	–	–	–	inactive: 0.126	–	inactive: -0.096	inactive: -0.164	–	inactive: 0.037	inactive: -0.07	inactive: -0.018
